Results are given in words; binding and its absence hold for the method and conditions named. For some assays here: Binding seen in cells or lysates may run through a third protein. Some results given as binding are weak or reduced against the parent protein; the word gives no strength. Where a sequence is shown, tags or fusion partners need not be part of it.

The chains behind the UniProt entries cited, without tags or fusion partners. Where a name states a change or a piece, a line headed by the entry shows the natural chain unless it says otherwise.
UniProt P10071: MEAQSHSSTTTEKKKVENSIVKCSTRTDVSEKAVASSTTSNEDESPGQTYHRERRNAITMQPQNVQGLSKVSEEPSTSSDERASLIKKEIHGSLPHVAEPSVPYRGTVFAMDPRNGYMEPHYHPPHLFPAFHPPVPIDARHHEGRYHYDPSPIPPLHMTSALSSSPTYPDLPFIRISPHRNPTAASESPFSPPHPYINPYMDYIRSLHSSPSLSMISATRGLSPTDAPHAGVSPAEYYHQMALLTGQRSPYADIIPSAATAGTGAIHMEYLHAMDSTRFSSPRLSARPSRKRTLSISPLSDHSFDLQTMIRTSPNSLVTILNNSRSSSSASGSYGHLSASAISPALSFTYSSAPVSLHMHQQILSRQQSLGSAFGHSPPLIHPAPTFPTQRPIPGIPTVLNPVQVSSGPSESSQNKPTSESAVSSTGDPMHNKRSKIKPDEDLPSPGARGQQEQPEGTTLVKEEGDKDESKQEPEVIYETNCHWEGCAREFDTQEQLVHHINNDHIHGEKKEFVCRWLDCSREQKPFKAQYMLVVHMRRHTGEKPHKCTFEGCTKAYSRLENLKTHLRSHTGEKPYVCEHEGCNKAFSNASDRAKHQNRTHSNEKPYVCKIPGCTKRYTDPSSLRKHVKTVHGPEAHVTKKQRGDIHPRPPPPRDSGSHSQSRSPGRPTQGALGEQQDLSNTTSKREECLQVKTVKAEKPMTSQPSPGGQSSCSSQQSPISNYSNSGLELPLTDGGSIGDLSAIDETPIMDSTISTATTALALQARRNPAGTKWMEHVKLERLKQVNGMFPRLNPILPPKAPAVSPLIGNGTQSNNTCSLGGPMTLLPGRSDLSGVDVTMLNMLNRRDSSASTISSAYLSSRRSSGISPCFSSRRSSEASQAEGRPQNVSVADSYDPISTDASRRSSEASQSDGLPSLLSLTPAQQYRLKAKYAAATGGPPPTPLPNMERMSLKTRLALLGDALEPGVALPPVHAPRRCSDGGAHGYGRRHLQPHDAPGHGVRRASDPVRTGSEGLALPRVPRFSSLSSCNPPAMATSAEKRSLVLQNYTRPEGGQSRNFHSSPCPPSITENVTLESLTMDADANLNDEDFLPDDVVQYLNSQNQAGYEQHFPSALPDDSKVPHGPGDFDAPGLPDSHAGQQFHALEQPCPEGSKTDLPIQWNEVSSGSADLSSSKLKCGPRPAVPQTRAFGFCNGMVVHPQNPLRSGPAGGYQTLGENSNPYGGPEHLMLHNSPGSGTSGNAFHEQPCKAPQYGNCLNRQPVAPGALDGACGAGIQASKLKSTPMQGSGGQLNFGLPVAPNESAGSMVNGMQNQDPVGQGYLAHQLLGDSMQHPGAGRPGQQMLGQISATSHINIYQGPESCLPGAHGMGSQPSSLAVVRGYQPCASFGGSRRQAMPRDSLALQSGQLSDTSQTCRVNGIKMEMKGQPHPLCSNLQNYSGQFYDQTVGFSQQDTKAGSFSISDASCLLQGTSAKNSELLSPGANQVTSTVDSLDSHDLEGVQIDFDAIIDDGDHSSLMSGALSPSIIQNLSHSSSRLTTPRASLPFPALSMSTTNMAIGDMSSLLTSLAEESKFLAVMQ

Assay [1] concerns the target T1, GST-Set7 (UniProt Q8WTS6).
T1 sequence: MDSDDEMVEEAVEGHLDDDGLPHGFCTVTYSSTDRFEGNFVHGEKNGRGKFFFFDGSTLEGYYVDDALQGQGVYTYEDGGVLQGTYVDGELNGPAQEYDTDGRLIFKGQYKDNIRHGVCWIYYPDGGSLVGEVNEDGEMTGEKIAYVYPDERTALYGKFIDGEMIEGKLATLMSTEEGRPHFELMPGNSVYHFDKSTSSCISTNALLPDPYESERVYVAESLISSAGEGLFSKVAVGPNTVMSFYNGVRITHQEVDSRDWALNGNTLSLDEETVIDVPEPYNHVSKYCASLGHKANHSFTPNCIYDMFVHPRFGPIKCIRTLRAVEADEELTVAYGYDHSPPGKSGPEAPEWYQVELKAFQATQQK
The assay is described as follows: pull-down; GST-Set7 as bait with MBP-tagged Gli3 truncated fragments (MBP-K436, MBP-K595); proteins expressed in E. coli; both purified.

Assay [2] addresses T1, GST-Set7. The assay is described as follows: pull-down; GST-Set7 as bait; flag-Gli3 from NIH-3T3 cells in the presence of Shh; only the target purified.

For “MBP-K595 (amino acids from 464 to 666 of Gli3) (from UniProt P10071 464-666) (domain or fragment)”, in the assay with GST-Set7 [1], the binding entry is listed as “binds”. As for “flag-tagged Gli3 full-length (from UniProt P10071 1-1580)”, in the assay with GST-Set7 [2], the binding result was “binds”.

The values are drawn from PMC4884081.
